Binding signal data for 57 sequences are collected here from article PMC7862700.

The entries are a selection whose mix differs from that of the whole data set. For some of these results: At the low end of the ranking, values are background and their order means little.

Assay in all cases: DAPPL (digital affinity profiling via proximity ligation, sequencing)
Common to all, as to conditions: 10 mM Tris-HCl pH 7.5, 50 mM NaCl, 1 mM DTT, 4% glycerol, room temperature, 30 min; GST-TFs on glutathione beads, 16-mer random dsDNA library, 0.1% …; high values mean tight binding; double strand, one strand shown; scale: fold enrichment (6-mer frequency, TF over GST control)

One assay concerns the target T1, ELK3 (UniProt P41970).
T1 sequence: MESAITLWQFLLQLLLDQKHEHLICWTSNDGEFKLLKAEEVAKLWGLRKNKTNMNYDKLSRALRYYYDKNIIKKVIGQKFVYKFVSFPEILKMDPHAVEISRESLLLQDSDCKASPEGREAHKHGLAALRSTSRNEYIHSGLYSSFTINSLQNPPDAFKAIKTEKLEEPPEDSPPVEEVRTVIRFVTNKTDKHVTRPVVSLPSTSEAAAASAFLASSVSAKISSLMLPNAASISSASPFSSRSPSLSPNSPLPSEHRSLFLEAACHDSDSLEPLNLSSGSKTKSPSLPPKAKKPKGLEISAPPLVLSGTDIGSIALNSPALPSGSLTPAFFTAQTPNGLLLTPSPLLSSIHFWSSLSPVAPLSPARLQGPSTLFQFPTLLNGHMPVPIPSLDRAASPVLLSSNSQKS

The target in another assay is T2, SPIC (UniProt Q8N5J4).
T2 sequence: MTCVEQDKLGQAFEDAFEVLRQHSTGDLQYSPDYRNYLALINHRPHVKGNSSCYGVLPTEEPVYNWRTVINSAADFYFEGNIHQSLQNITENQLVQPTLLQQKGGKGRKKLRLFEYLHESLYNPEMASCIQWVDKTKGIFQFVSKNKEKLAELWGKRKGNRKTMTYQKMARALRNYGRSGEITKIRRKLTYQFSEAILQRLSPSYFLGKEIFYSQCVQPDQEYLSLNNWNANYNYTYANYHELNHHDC

In another assay the target is T3, ETS2 (UniProt P15036).
T3 sequence: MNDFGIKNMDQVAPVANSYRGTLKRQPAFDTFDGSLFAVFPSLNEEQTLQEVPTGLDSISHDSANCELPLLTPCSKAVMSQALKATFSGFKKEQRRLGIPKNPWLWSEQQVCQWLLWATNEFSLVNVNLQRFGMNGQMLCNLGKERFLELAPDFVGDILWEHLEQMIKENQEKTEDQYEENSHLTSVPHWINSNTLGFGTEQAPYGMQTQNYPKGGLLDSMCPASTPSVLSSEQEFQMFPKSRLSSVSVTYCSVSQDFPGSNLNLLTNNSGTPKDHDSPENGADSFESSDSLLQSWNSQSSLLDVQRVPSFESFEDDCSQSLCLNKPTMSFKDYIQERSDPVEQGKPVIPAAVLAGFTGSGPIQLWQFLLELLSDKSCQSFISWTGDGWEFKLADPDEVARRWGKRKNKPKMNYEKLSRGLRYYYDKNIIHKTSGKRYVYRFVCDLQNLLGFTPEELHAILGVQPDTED

In another assay the target is T4, ETV3 (UniProt P41162-2).
T4 sequence: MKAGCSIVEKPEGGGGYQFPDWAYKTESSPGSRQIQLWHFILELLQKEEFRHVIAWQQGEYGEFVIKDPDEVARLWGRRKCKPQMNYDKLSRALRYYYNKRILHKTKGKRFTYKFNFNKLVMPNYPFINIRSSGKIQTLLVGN

Regarding AGAATA, the binding signal in the assay with ELK3 came out at 0.926; with SPIC it was 0.986; in the assay with ETS2 it was 1.

With TTTGCA, the binding signal in the assay with SPIC came to 1.23; with ETV3, 1.26.

TTTGAC: the binding signal with ELK3 is 1.34; with SPIC, 1.3; with ETS2, 1.33.

As for CCTCTG, the results for the binding signal with ELK3, with SPIC and with ETS2 were 1.58, 1.44 and 1.42, respectively.

For TGTAAC, the binding signal with ELK3 was determined as 1.2; with SPIC it was 0.96; with ETS2 it was 1.32.

Take TTGGTA: the binding signal was 1.2 with SPIC and 1.18 in the assay with ETV3.

Regarding GTACGC, the binding signal worked out at 0.993 with ELK3, 1.2 with SPIC and 1.14 in the assay with ETV3.

Turning to TGGCCA, the binding signal with SPIC came out at 0.971; in the assay with ETV3, 1.

As to CACGCG, the binding signal with SPIC was 1.29; with ETV3, 1.09.

For the sequence TAAAGC, the binding signal with SPIC and with ETV3 was 1.1 throughout.

As to AGATTA, the binding signal with SPIC came out at 0.895; with ETV3, 0.958.

On to TAGGTA, for which the binding signal turned out to be 0.963 with ELK3, 0.912 with SPIC and 0.975 with ETV3.

As to TGCGAC, the binding signal in the assay with SPIC came out at 1.3; in the assay with ETV3, 1.27.

Turning to AAGCTG, the figures for the binding signal in the assay with SPIC and in the assay with ETV3 were 1.08 and 1.24, respectively.

CCAACG: the binding signal is 1 in the assay with ELK3, 1.11 with SPIC and 1.09 with ETV3.

Turning to TGTCTG, the binding signal in the assay with ELK3 was 0.965; with SPIC it was 1.33; with ETV3, 0.986.

Turning to CAGCAT, the binding signal with SPIC was found to be 0.928; with ETV3 it was 0.97.

TTGAAA: the binding signal in the assay with SPIC is 1.15; with ETV3, 1.17.

As to TGGGGT, the binding signal with SPIC stood at 0.975; with ETV3 it was 1.14.

Take TTAGGT: the binding signal stood at 0.948 in the assay with SPIC and 1.06 with ETV3.

With GCCCAA, the binding signal with ELK3 was 0.931; with SPIC, 0.99; with ETV3, 0.96.

As for GTACCC, the binding signal with ELK3 amounted to 1.12; with SPIC it was 0.913; with ETV3, 1.06.

Consider TCATAC, for which the figures for the binding signal with SPIC and in the assay with ETV3 were 0.948 and 1.01, respectively.

With TCAAGT, the binding signal with SPIC came to 1.12; with ETV3, 1.1.

Turning to GCCTTA, the binding signal in the assay with SPIC came out at 1.07; with ETV3, 1.08.

On to CATAGT, for which the results for the binding signal with ELK3, in the assay with SPIC and with ETV3 were 0.959, 0.935 and 0.981, respectively.

As to CACATA, the binding signal came out at 1.07 with SPIC and 1.09 with ETV3.

Turning to CCATCA, the binding signal in the assay with ELK3 was 1.2; in the assay with SPIC, 1.09; with ETV3 it was 1.12.

On to TCCTAG, for which the results for the binding signal with SPIC and in the assay with ETV3 were 1.2 and 1.32, respectively.

Consider GATAGC, for which the binding signal in the assay with SPIC turned out to be 1.07; in the assay with ETV3, 1.05.

As for AATATA, the binding signal with SPIC turned out to be 1.29; with ETV3, 1.35.

Regarding CCTGTG, the figures for the binding signal in the assay with SPIC and in the assay with ETV3 were 1.32 and 1.07, respectively.

Consider GTACAC, for which the binding signal with SPIC was found to be 1.33; with ETV3, 1.21.

For CAACTT, the binding signal in the assay with ELK3 was 1.59; in the assay with SPIC, 1.77; with ETV3 it was 1.55.

For ACATTT, the results for the binding signal in the assay with SPIC and in the assay with ETV3 were 1.25 and 1.56, respectively.

As to GTCCTC, the values for the binding signal in the assay with SPIC and with ETV3 were 1.14 and 1.2, respectively.

ACAAAT: the values for the binding signal with SPIC and with ETV3 were 1.12 and 1.1, respectively.

Turning to CAATGA, the binding signal in the assay with SPIC amounted to 0.937; with ETV3, 1.

Regarding ACGACT, the binding signal in the assay with ELK3 came to 1.24; with SPIC, 1.26; in the assay with ETV3, 1.22.

For GACACT, the binding signal came to 0.83 with SPIC and 1.03 with ETV3.

Take ACCGGC: the binding signal worked out at 0.934 with SPIC and 1.15 with ETV3.

On to TCATTG, for which the binding signal is 0.951 in the assay with ELK3, 0.901 with SPIC and 0.857 with ETV3.

With TATCTG, the figures for the binding signal with SPIC and in the assay with ETV3 were 1.17 and 1.21, respectively.

With TGCCAC, the results for the binding signal with SPIC and with ETV3 were 1.19 and 1.18, respectively.

With CATACA, the binding signal was determined as 1.22 with ELK3, 0.973 with SPIC and 0.986 in the assay with ETV3.

As to TTGAGC, the binding signal with ELK3 stood at 0.862; in the assay with SPIC, 1.18.

CGTTTG: the binding signal in the assay with ELK3 turned out to be 1; with SPIC, 0.981; in the assay with ETV3, 1.08.

Regarding CGTCTT, the figures for the binding signal with ELK3 and with SPIC were 1.28 and 1.38, respectively.

CCGGGT: the binding signal is 0.989 with ELK3, 1.19 with SPIC and 1.21 with ETV3.

CACTGT: the values for the binding signal with ELK3, with SPIC and with ETV3 were 1.03, 1.19 and 1.12, respectively.

For ACGATA, the binding signal came out at 1.16 in the assay with ELK3, 1.38 with SPIC and 1.13 with ETV3.

Consider AAACTG, for which the binding signal was determined as 1.32 with ELK3, 1.07 in the assay with SPIC and 1.07 with ETV3.

With ATTGTT, the binding signal with ELK3 was 1.55; in the assay with SPIC, 1.45; with ETV3, 1.56.

Turning to AACACC, the figures for the binding signal with ELK3 and with SPIC were 0.94 and 1.02, respectively.

As for CCGGTG, the binding signal with ELK3 is 1.08; with SPIC, 0.928.

For the sequence AATGTA, the figures for the binding signal with ELK3 and with SPIC were 1.17 and 1.12, respectively.

With GGACCT, the binding signal in the assay with ELK3 turned out to be 1.37; with SPIC it was 1.46.
